At least one structure is not confirmed: it was looked up by name or label, or the drawing left a doubt.
Test system: adiponectin
Experiment: Comparative test for adiponectin production enhancing effect: plasma adiponectin concentration by radioimmunoassay
Type: in vivo
Conditions: female db/db mice, one week oral; Compound B 3 mg/kg, Compound C 30 mg/kg
Description: Plasma glucose levels and plasma adiponectin concentrations were compared between each of the groups respectively. The plasma adiponectin concentration was measured using a radioimmunoassay kit (Mouse Adiponectin RIA Kit, Linco Research, Inc.). Plasma was diluted by 100 times using a buffer provided with the kit, and measurement was conducted using the diluted plasma (5 μL) (final dilution rate: 2000 times). The radioactivity was measured using a gamma counter, and adiponectin concentration was calculated from the measured radioactivity (measurement unit: μg/mL).

Row | Compound | plasma adiponectin concentration, Compound B administration group versus Compound C administration group
1 | CN(CCOc1ccc(CC2SC(=O)NC2=O)cc1)c1ccccn1 (centres unmarked) [Compound B, Rosiglitazone] | no significant difference
2 | CCc1ccc(CCOc2ccc(CC3SC(=O)NC3=O)cc2)nc1 (centres unmarked) [Compound C, Pioglitazone] | no significant difference
